The other results are listed elsewhere or left out.
Biological target: OsWRKY34 (Oryza sativa, UniProt Q0JBA9 1-250)
Assay: protein-binding microarray (RPBM); PBS, 2% BSA, 51.3 ng/ul salmon testes DNA, 50 uM zinc acetate, 200 nM TF, 25 C, 1 h; high values mean tight binding
Details: protein: recombinant; tags: N-terminal polyhistidine and DsRed monomer fusion (pET32a); label: CyDye5-dUTP incorporated in the synthesized complementary strand; 3' TTTTT single-stranded linker to array surface; dsDNA, one strand shown
How it was run: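 Using Ni–NTA, transcription factors fused N-terminally to polyhistidine and DsRed were purified after expression in E. coli BL21-CodonPlus. These were incubated at 200 nM with a blocked, double-stranded custom Agilent array for 1 h at 25 °C in a buffer containing 50 µM zinc acetate, and the array was washed. The binding signal is per-feature fluorescence intensity (arbitrary units) on an Axon 4000B scanner.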

Protein sequences, listed by entry. Tags and fused reporters are not part of them.
UniProt Q0JBA9, entry or part of it: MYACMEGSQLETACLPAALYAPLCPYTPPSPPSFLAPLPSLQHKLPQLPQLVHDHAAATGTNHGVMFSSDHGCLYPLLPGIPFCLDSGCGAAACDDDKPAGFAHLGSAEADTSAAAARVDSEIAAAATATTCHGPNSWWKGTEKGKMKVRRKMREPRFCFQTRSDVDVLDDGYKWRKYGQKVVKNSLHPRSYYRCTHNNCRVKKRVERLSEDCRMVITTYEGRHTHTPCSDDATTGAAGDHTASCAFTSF

Sequence	binding signal
ACTAATATGTGGGCCCATGATTTTTTTATTTTTCTGGATCCGGAGTCACCTAGTGCAG	9410 fluorescence intensity (a.u.)
TATACTTATTTTTCTATTTTTTAGGGTAACTATATATTTTCGGAGTCACCTAGTGCAG	8230 fluorescence intensity (a.u.)
TGCTCTAACAATGGCCATGCCTCCCGGCCTCACCTTCTTCCGGAGTCACCTAGTGCAG	9510 fluorescence intensity (a.u.)
GTTGGGTGGGGAGCAGGCGGTGCGGTTCGTCGTCGCTGACCGGAGTCACCTAGTGCAG	8140 fluorescence intensity (a.u.)
ACGGTTTGATGGAGTTTAGGGGTGCACATTTCTGGTTTTACGGAGTCACCTAGTGCAG	8040 fluorescence intensity (a.u.)
GGTGTCACATTGGATGTTTGACCAAATGTCGGAAGGAGTTCGGAGTCACCTAGTGCAG	8410 fluorescence intensity (a.u.)
CTACGGTGGAGGCCCAGCCCGGATTCTATTGCTCTCGTTTCGGAGTCACCTAGTGCAG	8160 fluorescence intensity (a.u.)
GGGTGATTGAATCCTTGTCATCTAGTGTAAGGCATCTTTCCGGAGTCACCTAGTGCAG	8240 fluorescence intensity (a.u.)
GGGAGAGGTGGAGACCAGGAGGTGGGGTGGCGGAGGTCATCGGAGTCACCTAGTGCAG	14300 fluorescence intensity (a.u.)
CCACCTTTTCTCTCCACTGCACAGCAACTTCATCAGTCCCCGGAGTCACCTAGTGCAG	10600 fluorescence intensity (a.u.)
ACATGGGAATTTTGGTGGGATGGGGATGGGGATGGGGAATCGGAGTCACCTAGTGCAG	34000 fluorescence intensity (a.u.)
CACAATCTGCACGCCATATCTGACTACACATATACAACGCCGGAGTCACCTAGTGCAG	8110 fluorescence intensity (a.u.)
CACGCCACCATTCGCTGTCGATCTCTGCGTGCGTCTTTGACGGAGTCACCTAGTGCAG	8930 fluorescence intensity (a.u.)
CTGGGGCATCTTCTTCATCAGCTCAACCGTGTTCGCACGCCGGAGTCACCTAGTGCAG	14100 fluorescence intensity (a.u.)
CTTCCCTTTCACAACGATCGACTTCTGTTCGGTTTTAACTCGGAGTCACCTAGTGCAG	10300 fluorescence intensity (a.u.)
TTTTTCGTTTCCTTTCCGTGTTCTTTTTTTTTTCTTCCATCGGAGTCACCTAGTGCAG	10100 fluorescence intensity (a.u.)
CCATGTATCACACTCCGTTCATATATTCCTGGGCTGTATTCGGAGTCACCTAGTGCAG	8450 fluorescence intensity (a.u.)
TGTCGCTGTGTGCCTCTCTCTCTCTCTCTCCCGTGTCTCTCGGAGTCACCTAGTGCAG	8630 fluorescence intensity (a.u.)
TCATAATCCATCTTGTTAAGTGCTTGTGTTCAGATCAATGCGGAGTCACCTAGTGCAG	8170 fluorescence intensity (a.u.)
ACTTATAGCTACTGTTCATCGATCGTCCATGACTCCATGCCGGAGTCACCTAGTGCAG	11400 fluorescence intensity (a.u.)
TGACTGTACATCCTAGGCCTAGGGCACTTTGTTTTTTTTACGGAGTCACCTAGTGCAG	8990 fluorescence intensity (a.u.)
GTAAAGCCCATCTTCTGTTGTGTTCATCTTGCTCGTTCCTCGGAGTCACCTAGTGCAG	9400 fluorescence intensity (a.u.)
ACACACTCGCACAAGTTTAGCGACCGCTGGTGCACTTCACCGGAGTCACCTAGTGCAG	8850 fluorescence intensity (a.u.)
ACCCATGTGCCCATGCCCGACCCATGCCCGAAAGGGCTATCGGAGTCACCTAGTGCAG	8520 fluorescence intensity (a.u.)
GATTTTGAGTTTTTACTTGCAACATTTTACCACTCGTCTTCGGAGTCACCTAGTGCAG	14000 fluorescence intensity (a.u.)
CCATTGACTTTTTGTCCAACGTTTGACCATTCGTCTTATTCGGAGTCACCTAGTGCAG	17000 fluorescence intensity (a.u.)
ACCACGCATATAAACCGCAGATTATTTTTGTATCGAACGTCGGAGTCACCTAGTGCAG	8060 fluorescence intensity (a.u.)

Sequence	binding signal
GTGGGAGGGTGGCCGGCTCGTTGCAACCTCGAGCTCTCAACGGAGTCACCTAGTGCAG	12000 fluorescence intensity (a.u.)
GCTGTGTGTACATATTACTAGTACTACTTAATACGTGCTTCGGAGTCACCTAGTGCAG	11200 fluorescence intensity (a.u.)
TCACCATCATCTCCGCGGCCTTCAAATCCTCCTTCAACTCCGGAGTCACCTAGTGCAG	10100 fluorescence intensity (a.u.)
GCCTCGTTTCCATCTCCGCCGCGCTCGCCGCGTTCACACTCGGAGTCACCTAGTGCAG	11400 fluorescence intensity (a.u.)
CGGTCTCCAAAAATAATTTTGACCATTATTTTTCATTATACGGAGTCACCTAGTGCAG	8030 fluorescence intensity (a.u.)
TCTCTCCCGCCCTTCGAATTGAATGAATCTCTCAATTTCTCGGAGTCACCTAGTGCAG	8380 fluorescence intensity (a.u.)
TGTTAGTACTAAGTTTGTAATTTATACTCCCACCGTCTCACGGAGTCACCTAGTGCAG	8510 fluorescence intensity (a.u.)
TGAACCAAAATTTTTCGATGGCTACAAATTTCTCCAATTCCGGAGTCACCTAGTGCAG	8680 fluorescence intensity (a.u.)
TCTTTTGTAGGATCAATGTTGTTGTATTACTCTCTCATTACGGAGTCACCTAGTGCAG	9430 fluorescence intensity (a.u.)
TTTTGTGCTAGTATTCAGGAACTCATCATTCCTGTGTATACGGAGTCACCTAGTGCAG	8060 fluorescence intensity (a.u.)
CAATTCTGAAACCGATCTCCTGTGTCCCCAGTGTCAAATTCGGAGTCACCTAGTGCAG	8430 fluorescence intensity (a.u.)
TTCTCTGCTCCATTTCTTGCACTCTCCACTTTGCATTCTACGGAGTCACCTAGTGCAG	13100 fluorescence intensity (a.u.)
TTTAATACTTCAAATGTATGTCCGTATGCATAATTTTTTTCGGAGTCACCTAGTGCAG	10100 fluorescence intensity (a.u.)
TCCATATCTATTTCTCTCTTCCCGCACCTACTACTACACTCGGAGTCACCTAGTGCAG	9020 fluorescence intensity (a.u.)
AGTAGCATCCACTTCCACTTCGTCTCTCTCTCTCTCTCCCCGGAGTCACCTAGTGCAG	8150 fluorescence intensity (a.u.)
CCTGACTCCTCTCCTGCATTCTCTCGCTTCTGACGGCGGCCGGAGTCACCTAGTGCAG	8100 fluorescence intensity (a.u.)
TCTGCCTATGATCTGACTCCTGTAAGCACCTCATTTCCTTCGGAGTCACCTAGTGCAG	8192 fluorescence intensity (a.u.)
GATCCGTCCCATGTGGTTCACGTTGACTGCTAATCCAACTCGGAGTCACCTAGTGCAG	11300 fluorescence intensity (a.u.)
ACGCCAGCCATGTGTGTGTCTTGTCCGCGTACGTGCGCGCCGGAGTCACCTAGTGCAG	9260 fluorescence intensity (a.u.)
TCTTCATGGCTGGGTGGGTTGGTGAAGCTAGGTGGGCGCGCGGAGTCACCTAGTGCAG	14800 fluorescence intensity (a.u.)
GTATGATTAATCCGTTCTTCCATATGTAGGTACAATATTACGGAGTCACCTAGTGCAG	9500 fluorescence intensity (a.u.)
CCGCAACCTCCCGCCCGTCCCCGCCGACACCGACCACCCCCGGAGTCACCTAGTGCAG	10100 fluorescence intensity (a.u.)
CTATCTCTTCTTCTCTCTTTTTCAACTTAGCACAAATCATCGGAGTCACCTAGTGCAG	9080 fluorescence intensity (a.u.)
CATCTGCTTCCACCTGAAAATCATGCCAAACACAATACAACGGAGTCACCTAGTGCAG	8480 fluorescence intensity (a.u.)
GTGGGTTGGGGTCGGCGAGGGATCCGGGCGGCGGGGTATGCGGAGTCACCTAGTGCAG	14000 fluorescence intensity (a.u.)
AGGAGTCGCGGCTGAACAGGGGAGGGGCGGCGATCGAGCACGGAGTCACCTAGTGCAG	8810 fluorescence intensity (a.u.)
CCTCTAGAGGCTCTTCCTTCACTCAGCCTCTCCAACGACGCGGAGTCACCTAGTGCAG	8540 fluorescence intensity (a.u.)

Shown in CSV form: part of the list above
Sequence,binding signal
TTTTGTGCTAGTATTCAGGAACTCATCATTCCTGTGTATACGGAGTCACCTAGTGCAG,8060 fluorescence intensity (a.u.)
CAATTCTGAAACCGATCTCCTGTGTCCCCAGTGTCAAATTCGGAGTCACCTAGTGCAG,8430 fluorescence intensity (a.u.)
TTCTCTGCTCCATTTCTTGCACTCTCCACTTTGCATTCTACGGAGTCACCTAGTGCAG,13100 fluorescence intensity (a.u.)
TTTAATACTTCAAATGTATGTCCGTATGCATAATTTTTTTCGGAGTCACCTAGTGCAG,10100 fluorescence intensity (a.u.)
TCCATATCTATTTCTCTCTTCCCGCACCTACTACTACACTCGGAGTCACCTAGTGCAG,9020 fluorescence intensity (a.u.)
AGTAGCATCCACTTCCACTTCGTCTCTCTCTCTCTCTCCCCGGAGTCACCTAGTGCAG,8150 fluorescence intensity (a.u.)
CCTGACTCCTCTCCTGCATTCTCTCGCTTCTGACGGCGGCCGGAGTCACCTAGTGCAG,8100 fluorescence intensity (a.u.)
TCTGCCTATGATCTGACTCCTGTAAGCACCTCATTTCCTTCGGAGTCACCTAGTGCAG,8192 fluorescence intensity (a.u.)
GATCCGTCCCATGTGGTTCACGTTGACTGCTAATCCAACTCGGAGTCACCTAGTGCAG,11300 fluorescence intensity (a.u.)
ACGCCAGCCATGTGTGTGTCTTGTCCGCGTACGTGCGCGCCGGAGTCACCTAGTGCAG,9260 fluorescence intensity (a.u.)
TCTTCATGGCTGGGTGGGTTGGTGAAGCTAGGTGGGCGCGCGGAGTCACCTAGTGCAG,14800 fluorescence intensity (a.u.)
GTATGATTAATCCGTTCTTCCATATGTAGGTACAATATTACGGAGTCACCTAGTGCAG,9500 fluorescence intensity (a.u.)
CCGCAACCTCCCGCCCGTCCCCGCCGACACCGACCACCCCCGGAGTCACCTAGTGCAG,10100 fluorescence intensity (a.u.)
CTATCTCTTCTTCTCTCTTTTTCAACTTAGCACAAATCATCGGAGTCACCTAGTGCAG,9080 fluorescence intensity (a.u.)

From paper PMC7819943, “Rice protein-binding microarrays: a tool to detect cis-acting elements near promoter regions in rice”
